The structures given here were assigned with low confidence; some may be wrong.
Legend:
human μ opiate receptor = human μ opiate receptor (Homo sapiens, UniProt P35372); assay: μ opiate receptor binding assay with [3H]-naloxone, membrane preparation of CHO-K1 cells (WGA-SPA beads)
ORL1 receptor = ORL1 receptor (Homo sapiens, UniProt P41146); assay: ORL1 receptor binding assay with 3H-nociceptin/orphanin FQ, membranes from recombinant CHO-ORL1 cells (WGA-SPA beads)

By UniProt entry, the sequences of proteins in these tests, tags left out.
UniProt P35372, whole entry: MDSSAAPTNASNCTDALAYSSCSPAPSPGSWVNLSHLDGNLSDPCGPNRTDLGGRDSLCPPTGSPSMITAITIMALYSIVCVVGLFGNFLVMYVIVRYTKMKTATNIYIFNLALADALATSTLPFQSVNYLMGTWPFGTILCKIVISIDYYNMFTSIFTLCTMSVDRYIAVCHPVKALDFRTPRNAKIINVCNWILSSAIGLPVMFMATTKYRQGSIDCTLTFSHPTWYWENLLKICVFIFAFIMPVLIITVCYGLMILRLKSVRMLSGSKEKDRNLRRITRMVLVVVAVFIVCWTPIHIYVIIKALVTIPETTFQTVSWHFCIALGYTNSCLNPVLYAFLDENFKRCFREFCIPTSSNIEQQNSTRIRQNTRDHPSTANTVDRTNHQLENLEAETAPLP
UniProt P41146, whole entry: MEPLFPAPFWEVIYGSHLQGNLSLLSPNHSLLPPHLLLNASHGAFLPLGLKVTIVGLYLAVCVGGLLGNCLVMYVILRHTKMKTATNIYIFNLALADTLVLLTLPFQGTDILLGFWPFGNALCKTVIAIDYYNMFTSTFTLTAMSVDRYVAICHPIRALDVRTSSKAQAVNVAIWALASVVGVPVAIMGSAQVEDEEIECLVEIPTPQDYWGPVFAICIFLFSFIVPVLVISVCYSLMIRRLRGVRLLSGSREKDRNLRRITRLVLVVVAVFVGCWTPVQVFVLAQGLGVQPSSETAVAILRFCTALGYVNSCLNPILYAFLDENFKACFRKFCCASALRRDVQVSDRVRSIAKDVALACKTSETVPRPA

Question: `Cc1ccc(CN2CC3(CCC(c4cccs4)(N(C)C)CC3)CC2=O)s1` (single isomer, unassigned) was tested. Which Ki (human μ opiate receptor; read-out: Ki (μ) mean [μm], mean) did it give?
Answer: 0.38 nM

Question: What about the “% inhibition (μ) [1 μM]” value (human μ opiate receptor; test concentration 1 μM) of the same compound?
Answer: 100.5%

Question: What about the Ki (ORL1 receptor; read-out: Ki (ORL1) mean [μm], mean) of the same compound?
Answer: 1.9 nM

Question: What about the “% inhibition (ORL1) [1 μM]” value (ORL1 receptor; test concentration 1 μM) of the same compound?
Answer: 93.5%
